The target in experiment [1] is SUMO-1-PP5: PP5-FLAG SUMOylated in cells with SUMO-1-HA (UniProt P53041). The experiment is described as follows: co-IP; HEK293 cells co-transfected with PP5-FLAG WT and SUMO-1-HA; FLAG IP (IP:1, SUMOylated and non-SUMOylated PP5), then HA IP (IP:2, only SUMOylated PP5); Hsp90 and GR by immunoblot. A general note: A western blot detects proteins with antibodies after separation by electrophoresis.

By UniProt entry, the sequences of proteins in these tests, tags left out.
UniProt P04150: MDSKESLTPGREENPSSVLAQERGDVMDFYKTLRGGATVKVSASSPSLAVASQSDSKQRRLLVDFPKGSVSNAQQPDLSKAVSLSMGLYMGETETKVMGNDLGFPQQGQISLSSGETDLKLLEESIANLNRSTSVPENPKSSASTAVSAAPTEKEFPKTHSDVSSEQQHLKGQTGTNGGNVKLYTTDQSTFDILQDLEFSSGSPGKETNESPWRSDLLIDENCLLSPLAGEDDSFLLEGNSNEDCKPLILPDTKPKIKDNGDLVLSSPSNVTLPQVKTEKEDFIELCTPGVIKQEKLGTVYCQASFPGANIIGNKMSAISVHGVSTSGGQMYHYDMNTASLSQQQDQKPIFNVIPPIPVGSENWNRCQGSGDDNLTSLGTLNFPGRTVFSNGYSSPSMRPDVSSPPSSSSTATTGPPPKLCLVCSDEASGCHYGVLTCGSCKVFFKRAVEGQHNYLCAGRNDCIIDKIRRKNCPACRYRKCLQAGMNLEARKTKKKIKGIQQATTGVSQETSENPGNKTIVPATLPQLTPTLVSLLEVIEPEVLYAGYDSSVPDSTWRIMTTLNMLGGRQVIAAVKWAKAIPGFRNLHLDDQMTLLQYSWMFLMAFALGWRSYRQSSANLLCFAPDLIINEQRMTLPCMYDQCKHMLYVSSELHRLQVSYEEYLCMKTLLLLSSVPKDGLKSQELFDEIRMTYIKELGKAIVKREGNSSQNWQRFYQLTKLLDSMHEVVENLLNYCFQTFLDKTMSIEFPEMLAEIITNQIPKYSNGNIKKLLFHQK

For experiment [2], the target named is T1, PP5-FLAG-K97E/R101E-K430R (UniProt P53041).
T1 sequence: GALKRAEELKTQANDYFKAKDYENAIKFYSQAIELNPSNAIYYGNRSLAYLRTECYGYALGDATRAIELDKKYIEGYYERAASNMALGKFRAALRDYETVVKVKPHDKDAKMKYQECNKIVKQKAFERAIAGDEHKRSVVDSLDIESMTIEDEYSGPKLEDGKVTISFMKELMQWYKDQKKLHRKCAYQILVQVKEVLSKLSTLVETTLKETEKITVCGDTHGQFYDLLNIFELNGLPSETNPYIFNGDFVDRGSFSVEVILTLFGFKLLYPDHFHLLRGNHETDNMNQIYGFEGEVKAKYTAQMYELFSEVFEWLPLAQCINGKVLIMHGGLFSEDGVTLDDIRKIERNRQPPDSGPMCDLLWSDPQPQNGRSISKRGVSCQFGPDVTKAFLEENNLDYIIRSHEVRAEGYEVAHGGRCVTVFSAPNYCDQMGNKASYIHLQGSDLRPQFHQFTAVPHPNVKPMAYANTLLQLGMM
The experiment is described as follows: co-IP; anti-FLAG agarose IP of PP5-FLAG (WT or mutants) from lysate of transfected HEK293 cells, 2 h at 4 °C; washes in 20 mM Tris-HCl pH 7.4, 100 mM NaCl, 1 mM MgCl2, 0.1% NP40; endogenous partners by immunoblot; some panels with CK1δ-myc co-expressed or 2 µM IC261 for 16 h.

The next experiment deals with T2, PP5-FLAG-K430Q (UniProt P53041).
T2 sequence: T1 sequence with E75K, E79R, R408Q
The experiment is described as above.

Another experiment addresses T3, PP5-FLAG-K430A (UniProt P53041).
T3 sequence: T1 sequence with E75K, E79R, R408A
Described as above.

The target in experiment [3] is T4, PP5-FLAG-T362E-K430R double mutant (UniProt P53041).
T4 sequence: T1 sequence with E75K, E79R, T340E
The experiment is described as above.

Where a chain is given by its changes, count along the chain named. These are yes or no findings as the source states them, for the method shown. In cells and extracts the contact can be indirect. Some results given as binding are weak or reduced against the parent protein; the word gives no strength. For some assays here: Sequences can lack the tags named with a protein.

With “glucocorticoid receptor (GR), endogenous (from UniProt P04150 1-777)”, the binding entry in experiment [1] was “no binding”; in experiment [2] it was “no binding”; with PP5-FLAG-K430Q, “binds”; with PP5-FLAG-K430A it was “binds”; in experiment [3] it was “binds”.

The values above are taken from article PMC11549447.
